Data reported in the supplement of paper PMC10398353.
Counter-ions that a name gives are not always drawn. ± gives the standard deviation of the averaged measurements. This is one part of the list. The data scatter; read single values as rough.

The molecules below were run on Salmonella enterica serovar Typhimurium ST313 D23580 (assay: normalized bacterial growth (OD600 20 h minus 0 h, interquartile-mean normalized) (fraction of plate interquartile mean); higher = more bacterial growth (less inhibition)). Conditions: LPM (pH 5.8, low phosphate, low Mg2+), concentration: 10 µM, temperature: 37 °C.

Row | SMILES | normalized bacterial growth
1 | COc1ccc2c(c1)N(C[C@H](C)CN(C)C)c1ccccc1S2 [Methotrimeprazine maleat salt] | 0.938
2 | CC[C@H](CC[C@@H](C)[C@H]1CC[C@H]2[C@@H]3CC=C4C[C@@H](O)CC[C@]4(C)[C@H]3CC[C@]12C)C(C)C [beta-SITOSTEROL] | 0.964
3 | CCCCC[C@H](CC(=O)O)C(=O)O | 1.3
4 | CCCN(CCC)C(=O)C(CCC(=O)O)NC(=O)c1ccccc1 (stereo not given) [Proglumide] | 1.01
5 | COc1cc(OC)c(C(=O)CCCN2CCCC2)c(OC)c1 [Buflomedil hydrochloride] | 0.991
6 | CC(=O)NCCc1c[nH]c2ccc(O)cc12 [N-Acetyl-5-hydroxytryptamine] | 1.02
7 | O=c1ccc2ccc(O)c(O)c2o1 [Daphnetin] | 1.07
8 | O=C[C@H](O)[C@H](O)CO | 1.36
9 | OCC1=C[C@@H](O)[C@@H]2C=CO[C@@H](O[C@@H]3O[C@H](CO)[C@@H](O)[C@H](O)[C@H]3O)[C@H]12 | 1.02
10 | CCC(=O)OCC(=O)[C@@]1(OC(=O)CC)[C@H](C)CC2C3C([C@@H](O)C[C@@]21C)[C@@]1(C)C=CC(=O)C=C1C[C@H]3Cl (stereo not given in full) | 0.767
11 | CSc1ccc(C(=O)c2[nH]c(=O)[nH]c2C)cc1 [Enoximone] | 1.12
12 | CC(C)(S)[C@@H](N)C(=O)O | 1.25
13 | Cc1cc(C(=O)NNCc2ccccc2)no1 [Isocarboxazid] | 1.16
14 | O=C(O)CCCN1C(=O)c2cccc3cccc(c23)C1=O | 0.993
15 | CO[C@H]1C[C@H](O[C@H]2[C@H](C)[C@@H](O[C@@H]3O[C@H](C)C[C@H](N(C)C)[C@H]3OC(C)=O)[C@@H](C)C[C@@]3(CO3)C(=O)[C@H](C)[C@@H](OC(C)=O)[C@@H](C)[C@@H](C)OC(=O)[C@@H]2C)O[C@@H](C)[C@@H]1OC(C)=O [Troleandomycin] | 0.572
16 | CO[C@H]1C[C@H](O[C@H]2[C@H](C)[C@@H](O[C@@H]3O[C@H](C)C[C@H](N(C)C)[C@H]3OC(C)=O)[C@@H](C)C[C@@]3(CO3)C(=O)[C@H](C)[C@@H](OC(C)=O)[C@@H](C)[C@@H](C)OC(=O)[C@@H]2C)O[C@@H](C)[C@@H]1OC(C)=O | 0.765 ± 0.13
17 | COc1ccc(-c2ccc(=N)n(CCCC(=O)O)n2)cc1 [Gabazine] | 1.1
18 | COc1ccc(-c2ccc(=N)n(CCCC(=O)O)n2)cc1 | 0.943
19 | CCCCCCCCCCC[C@@H](C[C@@H]1OC(=O)[C@H]1CCCCCC)OC(=O)[C@H](CC(C)C)NC=O | 0.986
20 | COc1ccc(-c2oc3ccccc3c(=O)c2OC)cc1 | 0.825
21 | S=C(Nc1ccccc1)Nc1nccs1 [1-Phenyl-3-(2-thiazolyl)-2-thiourea] | 0.839
22 | COc1cc(C/C=C/c2ccccc2)c(OC)cc1O | 0.61
23 | O=C1O[C@H](CO)[C@@H](O)[C@H](O)[C@H]1O | 1.15

Row | SMILES | normalized bacterial growth
24 | CCCCCCCCCCCCCC/C(C(=O)O)=C(\C)C(=O)O | 0.649
25 | CC1(C)CCC[C@]2(C)[C@@H]3[C@H]1[C@@H](O)[C@@]2(C)C[C@H]3O | 1.11
26 | COc1cc2ncc(-c3ccccc3)nc2cc1OC [Tyrphostin AG 1296] | 1.19
27 | COc1ccc(-c2c(O)c3c(OC)c4c(cc3oc2=O)OC(C)(C)C=C4)cc1 | 0.837
28 | CC(=O)NO | 0.965
29 | CN(C)CC/C=C1\c2ccccc2CSc2ccccc21 [Dosulepin hydrochloride] | 0.855
30 | CN1CCCN=C1COC(=O)C(O)(c1ccccc1)C1CCCCC1 (stereo not given) | 1
31 | CC(C)(Oc1ccc(Cl)cc1)C(=O)O [Clofibric acid] | 1.41
32 | CCC(=O)OC1[C@@H]2CC3=C4CC(=O)O[C@@H](c5ccoc5)[C@]4(C)CCC3[C@@](C)(C2=O)[C@@H](CC(=O)OC)C1(C)C (stereo not given in full) | 0.917
33 | COC(=O)C[C@H]1C(C)(C)C(=O)[C@@H]2CC3=C(CC[C@]4(C)C3=CC(=O)O[C@H]4c3ccoc3)[C@@]1(C)C2=O | 1.01
34 | C=C1C(=O)[C@]23[C@H](CC[C@@H]1[C@@H]2O)[C@]12CO[C@@]3(O)[C@H](O)[C@H]1C(C)(C)CC[C@@H]2O | 1.32
35 | COc1cc(O)cc(O)c1C(C)=O | 0.816
36 | CS(=O)(=O)c1ccc(C2=C(c3ccccc3)C(=O)OC2)cc1 | 1.23
37 | COc1ccc2c(c1OC)OC[C@@H](c1ccc(OC)c(OC)c1OC)C2 | 0.621
38 | CN(C)CCC=C1c2ccccc2CCc2ccccc21 [Amitriptyline hydrochloride] | 0.977
39 | Cc1[nH]c(=O)c(C#N)cc1-c1ccncc1 [Milrinone] | 1.22
40 | C[C@]12CC[C@H]3C(=CCc4cc(O)ccc43)[C@@H]1CCC2=O [Equilin] | 0.766
41 | C[C@]12CC[C@H]3C(=CCc4cc(O)ccc43)[C@@H]1CCC2=O | 0.817
42 | C[C@]12C=CC(=O)C=C1CC[C@@H]1[C@@H]2[C@@H](O)C[C@@]2(C)[C@H]1CC[C@]2(O)C(=O)COP(=O)(O)O | 0.941
43 | CCCCCC/C=C\CCCCCCCc1cccc(O)c1C(=O)O | 1.12
44 | N=C(N)N | 1.01
45 | NC(N)=NCCNS(=O)(=O)c1cccc2cnccc12 [HA-1004 hydrochloride] | 1.29
